Results published in article PMC6386500, “Structural insights into the inhibition properties of archaeon citrate synthase from Metallosphaera sedula” (PLoS ONE, 2019).

Protein sequences, listed by entry. Tags and fused reporters are not part of them.
UniProt A4YGX6, entry or part of it: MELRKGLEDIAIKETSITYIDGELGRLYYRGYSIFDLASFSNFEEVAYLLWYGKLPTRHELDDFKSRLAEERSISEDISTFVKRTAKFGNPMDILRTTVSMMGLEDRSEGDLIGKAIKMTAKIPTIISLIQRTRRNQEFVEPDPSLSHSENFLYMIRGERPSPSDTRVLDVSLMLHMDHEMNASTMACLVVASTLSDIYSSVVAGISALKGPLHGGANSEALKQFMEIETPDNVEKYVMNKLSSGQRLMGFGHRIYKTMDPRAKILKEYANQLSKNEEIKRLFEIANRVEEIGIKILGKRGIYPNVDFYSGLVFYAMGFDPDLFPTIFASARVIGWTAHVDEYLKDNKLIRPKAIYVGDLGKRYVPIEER

Target: T1, MsCS (citrate synthase from Metallosphaera sedula) (Metallosphaera sedula, UniProt A4YGX6)
T1 construct: gene Msed_1522; C-terminal 6xHis tag (pET-30a, NdeI/XhoI), E. coli BL21(DE3)-T1R; homodimer about 85 kDa; modelled domains Met1-Arg370; printed peptide PLHGGANSE (212-221 as printed); His214, His253, Asp307 catalytic
Experiment: DTNB absorbance at […] nm, inhibition kinetics
Type: biochemical

Ki: 7.19 mM
SMILES: O=C(O)CC(O)(CC(=O)O)C(=O)O [citrate]
